Assay results: publication doi:10.1101/798603

Biological target: T1, Rpb4-TAP (S. cerevisiae), P20433
T1 chain: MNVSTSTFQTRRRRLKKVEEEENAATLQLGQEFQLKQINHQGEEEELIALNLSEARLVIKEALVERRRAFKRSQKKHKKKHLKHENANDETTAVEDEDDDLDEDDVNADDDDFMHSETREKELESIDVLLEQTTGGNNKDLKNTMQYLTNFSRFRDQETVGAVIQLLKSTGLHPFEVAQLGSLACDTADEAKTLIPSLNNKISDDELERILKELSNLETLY
Assay: affinity purification with mass spectrometry
Settings: remark: other sources report otherwise

B1: Ccr4, P31384 1-837 (protein)
chain: MNDPSLLGYPNVGPQQQQQQQQQQHAGLLGKGTPNALQQQLHMNQLTGIPPPGLMNNSDVHTSSNNNSRQLLDQLANGNANMLNMNMDNNNNNNNNNNNNNNNGGGSGVMMNASTAAVNSIGMVPTVGTPVNINVNASNPLLHPHLDDPSLLNNPIWKLQLHLAAVSAQSLGQPNIYARQNAMKKYLATQQAQQAQQQAQQQAQQQVPGPFGPGPQAAPPALQPTDFQQSHIAEASKSLVDCTKQALMEMADTLTDSKTAKKQQPTGDSTPSGTATNSAVSTPLTPKIELFANGKDEANQALLQHKKLSQYSIDEDDDIENRMVMPKDSKYDDQLWHALDLSNLQIFNISANIFKYDFLTRLYLNGNSLTELPAEIKNLSNLRVLDLSHNRLTSLPAELGSCFQLKYFYFFDNMVTTLPWEFGNLCNLQFLGVEGNPLEKQFLKILTEKSVTGLIFYLRDNRPEIPLPHERRFIEINTDGEPQREYDSLQQSTEHLATDLAKRTFTVLSYNTLCQHYATPKMYRYTPSWALSWDYRRNKLKEQILSYDSDLLCLQEVESKTFEEYWVPLLDKHGYTGIFHAKARAKTMHSKDSKKVDGCCIFFKRDQFKLITKDAMDFSGAWMKHKKFQRTEDYLNRAMNKDNVALFLKLQHIPSGDTIWAVTTHLHWDPKFNDVKTFQVGVLLDHLETLLKEETSHNFRQDIKKFPVLICGDFNSYINSAVYELINTGRVQIHQEGNGRDFGYMSEKNFSHNLALKSSYNCIGELPFTNFTPSFTDVIDYIWFSTHALRVRGLLGEVDPEYVSKFIGFPNDKFPSDHIPLLARFEFMKTNTGSKKV
In the case of B1, the binding is reported as “no binding”.

No constants are given. Whether binding was seen depends on the method and setting. In cells and extracts the contact can be indirect. These calls come from enrichment with a bait or labelling near it, and not all partners need be listed. No binding means not detected with the bait.
